Laboratory results from PubChem BioAssay AID588499 (NMMLSC, 2011).
Out of some 360,000 compounds screened, about 610 (0.17%) were called active. Inconclusive means that the source gave no clear call. Such entries were picked first, then a sample of the others. No stated cut-off is given here; in the data, active means inhibition above about 30%; inconclusive means no clear call, values can overlap the other calls; inactive means below that.

System: Botulinum neurotoxin type A light chain protease (Clostridium botulinum A str. ATCC 3502)
Test: blockers of BoNT/A LC substrate cleavage – biochemical, flow cytometry, MLPCN library, primary screen (AID 588499); further: plate controls were buffer without enzyme for full effect and enzyme alone for no effect
Conditions: multiplex microsphere protease substrate cleavage, at 10 µM, active compounds read high

| SMILES | inhibition |
| --- | --- |
| Cc1cc2cc(CN(CCCO)S(=O)(=O)c3cccc4nsnc34)c(=O)[nH]c2cc1C | inactive: -0.2% |
| CCOc1ccc(CCNC(=O)COC(=O)CCc2cc(OC)c(OC)c(OC)c2)cc1OCC | inconclusive: -3.3% |
| O=C(Nc1ccc(CN2CCS(=O)(=O)CC2)cc1)c1ccc(C(F)(F)F)cc1 | inactive: 0.1% |
| Cc1ccc(-c2ccc(/C=N/O)o2)cc1[N+](=O)[O-] | inactive: -1% |
| N#Cc1c(-c2ccccc2)c(-c2ccccc2)nn(CC(=O)NNC(=O)Nc2ccccc2)c1=O | inactive: 0.2% |
| CCC(CC)C(=O)c1c[nH]c(C(=O)NCCCN2CCOCC2)c1 | inconclusive: -1.7% |
| Cc1ccccc1NC(=O)c1cccc(N2C(=O)C3C4CCC(C4)C3C2=O)c1 (centres undefined) | inconclusive: -3.4% |
| CCN1CCN(CC(=O)N2N=CCC2c2ccccc2)CC1 (centres undefined) | inconclusive: 15.6% |
| Cc1[nH]nc(Nc2ccc(C(C)C)cc2)c1[N+](=O)[O-] | inactive: 0.1% |
| O=c1c2ccccc2sn1-c1ccccc1 | active: 70.4% |
| COC(=O)c1cc(CC(=O)c2ccc(O)cc2O)c(C)o1 | inactive: -0.6% |
| O=C(CCS(=O)(=O)c1ccc(Cl)cc1)Nc1nc(-c2cccnc2)cs1 | active: 51.4% |
| Cc1onc(-c2ccccc2Cl)c1C(=O)Nc1ccc(-c2cn3cccnc3n2)cc1 | inconclusive: -0.5% |
| Nc1ccc2ncccc2c1 | inconclusive: 19.4% |
| CCCC(=Nc1ccc(N)cc1)C1=C(O)C(C(=O)OC)C(C)(C)CC1=O (centres undefined) | inconclusive: -0.1% |
| COP(=O)(OC)C(Nc1ccc([N+](=O)[O-])cc1)c1ccccc1 (centres undefined) | inconclusive: -29.7% |
| COc1cccc(NC(=O)CN(C)C(=O)CCC(=O)c2cc(C)sc2C)c1 | active: 67.7% |
| c1ccc(Cn2c(NCc3ccco3)nc3ccccc32)cc1 | inconclusive: 2.2% |
| C/C(=N\NC(=O)CN1CCN(Cc2ccccc2)CC1)c1ccncc1 | inconclusive: -38.6% |
| CCc1nc(Nc2ccccc2)c2oc3ccccc3c2n1 | inconclusive: 4.8% |

| SMILES | inhibition |
| --- | --- |
| O=C(O)c1cc(-c2ccccc2)c(N2CCOCC2)s1 | active: 84.4% |
| CC(=O)c1ccc(NC(=O)C(=O)c2cn(CC(=O)N3CCCCC3)c3ccccc23)cc1 | inactive: -0.8% |
| COc1ccc(Nc2nc(OC)nc(N3CCN(c4ccc(OC)cc4)CC3)n2)cc1 | inactive: -3.7% |
| O=C(CN1C(=O)CC(c2ccccc2)=Nc2ccccc21)NCc1ccccc1 | inactive: -0.4% |
| O=[N+]([O-])c1cccnc1Sc1ccc(Br)cc1 | inconclusive: 1.4% |
| Cc1cnc(C(=O)OCC(=O)c2ccc(Br)s2)cn1 | inactive: 2.9% |
| Cc1ccc(C2=N/C(=C/c3cccs3)C(=O)N2Nc2ccccc2)cc1 | active: 80.1% |
| O=C(Cn1cnc2c(nnn2Cc2ccc(F)cc2)c1=O)Nc1ccccc1 | inactive: -1.9% |
| CCN1CCc2c(sc(NC(=O)c3ccc(S(=O)(=O)N4CCOCC4)cc3)c2C(N)=O)C1 | inconclusive: -0.1% |
| COc1ccc(C2=NN(C(=O)CN3CCCCC3)C(c3ccc(OC)cc3)C2)cc1 (centres undefined) | inconclusive: -1.5% |
| CC12CCC(C(=O)NCc3ccc(Cl)cc3)(OC1=O)C2(C)C (centres undefined) | inactive: -2.6% |
| CCC(C)N(C(=O)c1csnn1)C(C(=O)NCc1ccc(F)cc1)c1ccccc1F (centres undefined) | inactive: 0.9% |
| Cn1nnnc1SCCNCc1ccc(Cl)cc1 | inconclusive: -4.3% |
| COc1ccc(S(=O)(=O)N2CCN(C(=O)c3ccccn3)CC2)cc1 | inconclusive: 10.9% |
| CC(CCC(C)OC(=O)c1ccccc1C(=O)O)OC(=O)c1ccccc1C(=O)O (centres undefined) | inactive: -2.7% |
| O=C(O)CCCCCNC(=O)CCn1nnc2ccccc2c1=O | inconclusive: 2.7% |
| O=C(CC1Sc2ccccc2NC1=O)NNc1cccc(Cl)c1Cl (centres undefined) | inactive: 0.6% |
| O=S(=O)(c1cccc(-c2nnc(-c3cccnc3)o2)c1)N1CCCCC1 | inconclusive: 2% |
| CC1CN(c2oc(-c3cccs3)nc2C#N)CC(C)O1 (centres undefined) | inactive: -0.2% |
| CCOC(=O)c1oc2ccccc2c1CN1CCOCC1 | inactive: 2.1% |

| SMILES | inhibition |
| --- | --- |
| CCOC(=O)c1cc(-c2ccc(Cl)s2)[nH]n1 | inconclusive: 1.2% |
| O=C(OC1CC2CC1[C@H]1CCCCN1C2=O)N1CCN(c2ccccc2)CC1 (some centres undefined) | inactive: 0.1% |
| O=C(O)CCC(=O)N1CCc2cc(S(=O)(=O)NC3CCCc4ccccc43)ccc21 (centres undefined) | inactive: 0% |
| Cc1nn(Cc2ccc([N+](=O)[O-])cc2)c(=O)n1-c1ccccc1 | inconclusive: 5.6% |
| CCCCC(=O)Nc1ccc(NC(=O)c2ccc3c(c2)OCO3)cc1OC | inactive: 1.6% |
| CC1CCCN(Cc2c(O)ccc3c(=O)c(-c4nc5ccccc5s4)c(N)oc23)C1 (centres undefined) | inconclusive: -5.2% |
| Cc1cc(C(=O)Nc2nnc(C3CCCCC3)s2)cs1 | inconclusive: -1.5% |
| CCC(NC(=O)Nc1cc(C)on1)(C(F)(F)F)C(F)(F)F | inconclusive: 9.8% |
| C=CCSc1nnnn1-c1ccc(OC)cc1 | inconclusive: -308% |
| CC(C)C[C@H]1CN([C@@H](Cc2ccc(O)cc2)CN2CCC[C@H]2CN2C(=O)C(=O)NC[C@@H]2Cc2ccccc2)C(=O)C(=O)N1CC1CCCCCC1 | inactive: 0.3% |
| CC1(C)CC(C#N)(N2CCOCC2)CCO1 (centres undefined) | inconclusive: 1.2% |
| CCOCc1nnc(NC(=O)CSCc2ccccc2)s1 | inconclusive: 4.2% |
| Clc1ccccc1N1CCN(Cc2ccc(Br)o2)CC1 | inconclusive: 15.6% |
| CCCc1cc(=O)[nH]c(SCC(=O)c2cc(C)n(C(C)COC)c2C)n1 (centres undefined) | inconclusive: -2.7% |
| C=CC(=O)NC(NC(=O)C=C)c1ccc(Br)cc1 | inconclusive: -2.4% |
| CCCn1nnc(NC(=O)C(C)C)n1 | inconclusive: 23.4% |
| CCc1ccc(NC(=O)CSc2nc3ccccc3c(=O)n2CCN2CCOCC2)cc1 | inconclusive: -2.1% |
| Cn1nc(C(F)(F)F)c(/C=N/OC(=O)c2ccccc2Cl)c1SCc1ccc(Cl)cc1 | inactive: 0.8% |
| Cc1snc(SCC(=O)c2ccc(Cl)cc2)c1C#N | inconclusive: 1.4% |

Taken from the entries so far, 14 compounds:

| SMILES | inhibition |
| --- | --- |
| O=C(O)CCCCCNC(=O)CCn1nnc2ccccc2c1=O | inconclusive: 2.7% |
| O=C(CC1Sc2ccccc2NC1=O)NNc1cccc(Cl)c1Cl (centres undefined) | inactive: 0.6% |
| O=S(=O)(c1cccc(-c2nnc(-c3cccnc3)o2)c1)N1CCCCC1 | inconclusive: 2% |
| CC1CN(c2oc(-c3cccs3)nc2C#N)CC(C)O1 (centres undefined) | inactive: -0.2% |
| CCOC(=O)c1oc2ccccc2c1CN1CCOCC1 | inactive: 2.1% |
| CCOC(=O)c1cc(-c2ccc(Cl)s2)[nH]n1 | inconclusive: 1.2% |
| O=C(OC1CC2CC1[C@H]1CCCCN1C2=O)N1CCN(c2ccccc2)CC1 (some centres undefined) | inactive: 0.1% |
| O=C(O)CCC(=O)N1CCc2cc(S(=O)(=O)NC3CCCc4ccccc43)ccc21 (centres undefined) | inactive: 0% |
| Cc1nn(Cc2ccc([N+](=O)[O-])cc2)c(=O)n1-c1ccccc1 | inconclusive: 5.6% |
| CCCCC(=O)Nc1ccc(NC(=O)c2ccc3c(c2)OCO3)cc1OC | inactive: 1.6% |
| CC1CCCN(Cc2c(O)ccc3c(=O)c(-c4nc5ccccc5s4)c(N)oc23)C1 (centres undefined) | inconclusive: -5.2% |
| Cc1cc(C(=O)Nc2nnc(C3CCCCC3)s2)cs1 | inconclusive: -1.5% |
| CCC(NC(=O)Nc1cc(C)on1)(C(F)(F)F)C(F)(F)F | inconclusive: 9.8% |
| C=CCSc1nnnn1-c1ccc(OC)cc1 | inconclusive: -308% |
